Data on 3 molecules can be found in article PMC3667761.

These are yes or no findings as the source states them, for the method shown. In cells and extracts the contact can be indirect. Some entries that bind do so weakly or less than the wild type. For some assays here: Tags and fused reporters may be left off the sequences shown.

Details in all cases: remark: other sources report otherwise
Assay [1] addresses human p21 (in CHO cells) (human), P38936. Kind of assay: co-IP; CHO cells transfected with cyclin D3 (or cyclin D1-Flag), CDK4-HA and p21 or their mutants; IP with anti-cyclin D3 (DCS-28), anti-p21 or anti-Flag; SDS-PAGE or 2D gel and immunoblot; some immunoprecipitates incubated with ATP and recombinant kinases before the gel. On the technique in general: In western blotting, separated proteins are transferred to a membrane and probed.

Assay [2] addresses 3×HA-p21 wt (human), P38936. Kind of assay: co-IP; HCT116 K7AS cells with inducible 3×HA-p21 wt or T57D, serum-deprived 48 h, doxycycline 16 h; anti-HA immunoprecipitates incubated with ATP with or without recombinant cyclin A2-CDK2, then with or without CAK; 2D gel, anti-CDK4 and p21 antibodies.
Assay [3] addresses p21 (human (endogenous in HCT116)), P38936. The assay can be described thus: co-IP; endogenous proteins from HCT116 lysates (wt, K7AS, p21-null); IP with anti-cyclin D1 (DCS-11), anti-cyclin D3 (DCS-28) or anti-p21 (C-19); SDS-PAGE or 2D gel and immunoblot; cells serum-deprived or stimulated with FBS, with or without 1-NMPP1, roscovitine, CR8, PD0332991 or MG132.
For assay [4], the target named is 3×HA-p21 wt (human), P38936. The assay can be described thus: co-IP; HCT116 K7AS cells with Tet-On inducible 3×HA-p21 wt or mutants, doxycycline 16 h then FBS 16 h; IP with anti-HA; 2D gel, immunodetection with a mixture of anti-CDK4 and p21 antibodies.
Assay [5] concerns the target p21 (human (endogenous in HCT116)), P38936. The assay can be described thus: co-IP; HCT116 K7AS cells transfected with cyclin D3 and CDK4-HA, with or without 1-NMPP1 for 48 h; IP with anti-cyclin D3 or anti-p21; 2D gel, anti-CDK4 blot.

B1: CDK4-HA (in CHO cells), P11802 1-303 (enzyme)
chain: MATSRYEPVAEIGVGAYGTVYKARDPHSGHFVALKSVRVPNGGGGGGGLPISTVREVALLRRLEAFEHPNVVRLMDVCATSRTDREIKVTLVFEHVDQDLRTYLDKAPPPGLPAETIKDLMRQFLRGLDFLHANCIVHRDLKPENILVTSGGTVKLADFGLARIYSYQMALTPVVVTLWYRAPEVLLQSTYATPVDMWSVGCIFAEMFRRKPLFCGNSEADQLGKIFDLIGLPPEDDWPRDVSLPRGAFPPRGPRPVQSVVPEMEESGAQLLLEMLTFNPHKRISAFRALQHSYLHKDEGNPE
Consider B1, for which the binding result in assay [1] is on record as “binds”.

B2: CDK4, P11802 1-303 (enzyme)
chain: B1 chain
Regarding B2, the binding entry in assay [2], in assay [3] and in assay [4] was “binds” in each case.

B3: CDK4-HA (in HCT116 K7AS cells), P11802 1-303 (enzyme)
chain: B1 chain
As to B3, the binding entry in assay [5] was “binds”.
